Values from PubChem BioAssay AID1259308 (NCATS, 2017).

Screen: 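Genes whose loss raises luciferase production in HEK293 cells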 (primary screen)
System: human HEK293 embryonic kidney cells stably expressing firefly luciferase (HEK-CMV-Luc2-Hygro)
Reagents: single siRNA against human genes, 0.8 pmol siRNA per well
Timing: 72 h
Measured: 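Luciferase light (ONE-Glo) measured on one replicate plate set and viability (CellTiter-Glo) on the other, scaled to a negative control siRNA, with robust z-scores and luciferase per cell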
Reading the numbers: total luciferase, z-score: higher = more reporter protein produced
Active means: 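An siRNA counts as active if its total luciferase robust z-score exceeds 3; genes with two or more such siRNAs out of three were retested with fresh siRNAs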
Meaning of the calls: active = raised luciferase; inactive = no rise
Shown is an unselected part of about 59,000 reagents. In the full data, about 1,510 (2.6%) were called active. 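Calls use total luciferase alone and ignore viability, so some active siRNAs may act by altering cell number.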 A number with no mark means an inactive call. Reagents against one gene are numbered here. Not all columns of the deposit are shown.

MRGPRD #1 → total luciferase, z-score = 0.415
MRGPRD #2 → total luciferase, z-score = -0.78
MRGPRD #3 → total luciferase, z-score = -0.44
AIF1L #1 → total luciferase, z-score = 1.61
AIF1L #2 → total luciferase, z-score = -1.71
AIF1L #3 → total luciferase, z-score = 0.413

The list goes on (2 carried over from the part before).
AIF1L #2 → total luciferase, z-score = -1.71
AIF1L #3 → total luciferase, z-score = 0.413
INPP1 #1 → total luciferase, z-score = 0.965
INPP1 #2 → total luciferase, z-score = -0.77
INPP1 #3 → total luciferase, z-score = 0.182
ALDH3B1 #1 → total luciferase, z-score = -1.46
ALDH3B1 #2 → total luciferase, z-score = 0.947
ALDH3B1 #3 → total luciferase, z-score = 1.88
